Primary screen of a compound library

The values are deposited in ChEMBL (CHEMBL3988442, “University of Dundee, Small-Polar-MMV Screening Library” (2021)).

Results are given as percent effect.
The controls that fix the scale are not given in the record; negative values are as filed.
Compounds were drawn at random from those tested, without regard to their results.

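Whole-cell assay for inhibitors of Mycobacterium tuberculosis growth, labelled Cornell in the record; the read-out is not stated. The concentration is filed as 10 mM, unlikely as a test dose, so the dose is not known. The record gives no direction; compounds strong in two other growth screens of this library score well above the rest, so higher reads as stronger inhibition. Size under these conditions: about 53,000 compounds, about 900 of them at 50% or above in at least one test.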

structure	effect
[H][C@]12CN(Cc3ccccn3)CCN1C[C@H](c1ccccc1)[C@H]2C(=O)NC	0.009275%
COC(=O)[C@@H](NC(=O)c1coc(COc2cccc(F)c2)n1)C(C)C	30.38%
CC(O)CN1CCN(C(=O)c2ccc(Cn3cccn3)cc2)CC1 (stereo unspecified)	-2.12%
NCC1Cc2cc(Cl)cc(-c3cncc(C(=O)N4CCCCC4)n3)c2O1 (stereo unspecified)	13.39%
COCCN1C(=O)CC(N2CCN(c3ccccc3)CC2)C1=O (stereo unspecified)	12.26%
Cn1cc(C(=O)NCc2cn3c(n2)CN(CC2CCOCC2)CC3)cn1.O=C(O)C(F)(F)F	25.63%
Cl.OC1CCN(Cc2c(C3CCCNC3)[nH]c3ncccc23)CC1 (stereo unspecified)	-15.85%
CC1(C)CNC(=O)c2nc(C3CCN(C(=O)C4CC4)CC3)[nH]c2C1	-4.953%
COCC1CN(Cc2ccccn2)Cc2cn(C)nc21.O=C(O)C(F)(F)F.O=C(O)C(F)(F)F.O=C(O)C(F)(F)F (stereo unspecified)	31.55%
CCc1cnc(NCCS(=O)(=O)CC(C)C)nc1	-2.144%
COc1ccccc1C(=O)Nc1c(F)c(C(=O)N2CCCC2)nn1C	1.869%
CCN(CC)CCCN1CCC(NC(=O)OC(C)(C)C)CC1	2.198%
CCOc1ccc(C(F)(F)F)cc1NC(=O)NCc1noc(C)n1	17.34%
[H][C@@]12C[C@H](C)O[C@]1([H])CCN(S(=O)(=O)c1ccc(F)cc1)C2	-14.57%
CS(=O)(=O)N1CCC(c2nnc(Cn3ccnc3)n2C2CC2)CC1	-29.45%
NC(=O)CN1CCCN(C(=O)Cc2ccc(Br)cc2)CC1	-21.83%
O=C(C1CCOCC1)N1CCC2(CC1)CN(c1ccsc1)C(=O)CO2	21.51%
CC(C)c1nnc2n1CCN(c1nn3cc(C(C)(C)C)nc3s1)C2	-0.2294%
CC(=O)N1CCc2nc(-c3ccccc3)nc(NC(C)C)c2CC1	-0.04824%
CN(C)C(=O)c1cc(-c2ccncc2)[nH]n1	-11.15%
Cc1csc(N2CCC(NCC3(O)CCc4ccccc43)CC2)n1 (stereo unspecified)	-22.7%
[H][C@@]12CCC(=O)N(CCc3c[nH]cn3)[C@]1([H])CCN(Cc1coc(C)n1)C2	3.675%
O=C(CCc1ccco1)Nc1cc(C(F)(F)F)c[nH]c1=O	7.769%
CC(C)COC1CC2(CCN(Cc3nccn3C)CC2)C1.O=C(O)C(F)(F)F	11.51%
O=C(NCCNc1ccccn1)N1CCSCC1	5.277%
O=C(Cc1ccccc1)N1CCn2cc(Cn3cncn3)nc2C1	-2.435%
[H][C@@]12C[C@@H](OCc3ccccn3)CN1CCN(C(=O)c1ccnnc1)C2	21.42%
O=S1(=O)CCC(c2nnc(-c3cnc4onc(C5CC5)c4c3)o2)C1 (stereo unspecified)	6.589%
O=C(Cc1cccc(O)c1)N1CCCC(O)(CN2CCCC2)CC1 (stereo unspecified)	-1.621%
COc1cccc(F)c1-c1nc2c([nH]1)c(C1CC1)nn2C	-22.21%
CN1CCC(NCC(O)c2cccc(OCc3ccccc3)c2)CC1 (stereo unspecified)	-47.23%
O=C(Cc1ccccn1)N1CCn2cc(Cn3cncn3)nc2C1	-19.87%
Cc1cnn(C2CCCN(C(=O)c3cc(C)sc3C)C2)c1 (stereo unspecified)	1.503%
CCC(C)(NCC(N)=O)c1nccs1 (stereo unspecified)	-22.41%
COc1ccccc1CCN1CCCC(CN(C)Cc2ccc(C)o2)C1 (stereo unspecified)	14.72%
Cc1cc(C)c2ncc(C#N)c(NC3CCN(CC(N)=O)CC3)c2c1	26.57%
COCCN(C)CCN1CC2(CCN(C3CCCCC3)CC2)OC1=O	12.53%
CN(C)c1ccc(C(=O)NCc2cccnc2-n2cncn2)cc1F	35.01%
Cc1cccc(COc2ccc(C(C)NC(=O)CNC(N)=O)cc2)c1 (stereo unspecified)	14.07%
COC(=O)CC(c1ccc(O)c(Cl)c1)c1oc(C)cc(=O)c1O (stereo unspecified)	19.15%
O=C(c1ccnc(-n2ccnc2)c1)N1CCCC(n2cccn2)C1 (stereo unspecified)	-26.13%
Cc1ccc(C(=O)O)cc1S(=O)(=O)Nc1nn(-c2ccccc2)cc1C	-10.27%
COCCCn1ccc(NCc2ccc(NC(C)=O)cc2)n1	16.55%
COc1nn(C)c2c1CCCN(C(=O)c1ccc3ccccc3n1)C2.O=C(O)C(F)(F)F	-6.173%
CCN1CCCC1(C)c1nc(C)cc(N)n1 (stereo unspecified)	-13.98%
COc1cccc(CN2CCCC3(CCN(C(=O)c4ccco4)C3)C2)c1 (stereo unspecified)	-9.131%
CN(C)c1cc(C2CCCN2C(=O)c2noc3c2CCCC3)ccn1 (stereo unspecified)	10.48%
CC(C)CNC(=O)c1ccc(NC(=O)NC(C)(C)CO)cc1Cl	-0.6685%
Cc1nn2c(NC(=O)CSc3nccn3C)csc2nc1=O	-11.03%
O=C(NCCCOCC1CCCO1)c1cccnc1N1CCOCC1 (stereo unspecified)	-37.06%
CC(C(=O)NCc1ccco1)N1CCN(Cc2nccn2C)CC1 (stereo unspecified)	12.87%
CN(C)CCNc1cc(-c2ncccc2O)c2cc[nH]c2n1	-38.75%
Cl.Cl.OC(CN1CCN(Cc2ccc(F)cc2)CC1)C1CC1 (stereo unspecified)	9.682%
CCS(=O)(=O)CCNC(=O)NC(C)c1ccc(C)s1 (stereo unspecified)	-19.06%
CC(C)c1ccc(-c2nonc2N)cc1	-20.21%

Some entries from above, unchanged:

structure,effect
CC1(C)CNC(=O)c2nc(C3CCN(C(=O)C4CC4)CC3)[nH]c2C1,-4.953%
[H][C@]12CN(Cc3ccccn3)CCN1C[C@H](c1ccccc1)[C@H]2C(=O)NC,0.009275%
O=C(CCc1ccco1)Nc1cc(C(F)(F)F)c[nH]c1=O,7.769%
CN(C)C(=O)c1cc(-c2ccncc2)[nH]n1,-11.15%
[H][C@@]12C[C@H](C)O[C@]1([H])CCN(S(=O)(=O)c1ccc(F)cc1)C2,-14.57%